# In PMC13431160:
# By UniProt entry, the sequences of proteins in these tests, tags left out.
# UniProt O00425, whole entry: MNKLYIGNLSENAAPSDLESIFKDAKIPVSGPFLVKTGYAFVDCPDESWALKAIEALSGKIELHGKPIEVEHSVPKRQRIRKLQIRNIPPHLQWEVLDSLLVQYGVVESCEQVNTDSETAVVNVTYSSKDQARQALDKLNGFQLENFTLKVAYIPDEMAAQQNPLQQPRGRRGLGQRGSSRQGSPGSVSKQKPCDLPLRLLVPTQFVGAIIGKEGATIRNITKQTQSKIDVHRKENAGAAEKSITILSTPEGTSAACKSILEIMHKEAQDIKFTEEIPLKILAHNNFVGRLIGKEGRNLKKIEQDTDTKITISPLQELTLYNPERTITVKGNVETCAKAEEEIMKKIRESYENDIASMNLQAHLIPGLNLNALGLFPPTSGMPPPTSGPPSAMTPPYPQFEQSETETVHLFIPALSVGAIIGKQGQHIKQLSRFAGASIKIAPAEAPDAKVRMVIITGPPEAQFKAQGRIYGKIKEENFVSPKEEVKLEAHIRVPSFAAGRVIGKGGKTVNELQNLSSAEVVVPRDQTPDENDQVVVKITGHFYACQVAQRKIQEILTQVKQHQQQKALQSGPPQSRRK
# The comparison behind a weaker result is the experiment's own reference, which may not be listed here. Construct, isoform or probe ends are uncertain for at least one entry.
# Molecular target: IGF2BP3 WT (UniProt O00425)
# Experiment: fluorescence anisotropy
# Conditions: 25 mM HEPES pH 7.2, 150 mM NaCl, 25 nM RNA, 3.9 nM-4 uM protein, 30 min on ice, read at 20 C, recombinant protein, residues 1-579, protein details: N-terminal GST removed by 3C cleavage (pGEX-6P-2), label: 5' fluorescein
sequence,measurement,setting,value
TAACAUUUAA [CAUUU motif RNA],Kd,5' fluorescein-dT (FluorT) precedes the tagged RNA S7,400 nM
TAAUCCAGAA [UCCAG motif RNA],Kd,5' fluorescein-dT (FluorT) precedes the tagged RNA S6,400 nM
UAAAAAAAAA [poly(A) negative control RNA],binding result,5' fluorescein-dT (FluorT) precedes the tagged RNA S9,binds more weakly
